For 31 molecules, binding results are on record in patent US20200347135A1.

Amino acid sequences for entries named in this document (tags omitted). A change or cut given only in a name is not applied to a line headed by its entry.
UniProt Q15116: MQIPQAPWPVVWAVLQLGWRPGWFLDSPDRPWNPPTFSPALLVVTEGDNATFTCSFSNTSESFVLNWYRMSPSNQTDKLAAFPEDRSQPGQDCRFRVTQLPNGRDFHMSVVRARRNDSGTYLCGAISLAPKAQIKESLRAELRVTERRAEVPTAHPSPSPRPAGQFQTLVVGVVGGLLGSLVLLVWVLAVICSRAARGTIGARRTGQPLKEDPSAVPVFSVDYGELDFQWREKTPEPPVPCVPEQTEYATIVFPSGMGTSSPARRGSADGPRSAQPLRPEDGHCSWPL

Test [1] deals with recombinant PD-1 extracellular domain (ECD) protein (human) (UniProt Q15116). The test is described as follows: screen of sdAb supernatants: ELISA on PD-1 ECD protein and FACS on PD-1 stable cell line.
The target in test [2] is human PD-1 expressed on cells (human) (UniProt Q15116). The test is described as follows: flow cytometry on human PD-1 expressing cells.
Test [3] has the same target. The test can be described thus: flow cytometry (FACS) on CHO cells expressing human PD-1.

No constants are given. Whether binding was seen depends on the method and setting. Some binding calls cover weakened binding; strength is not graded here.

B1: AS25396 sdAb (VHH)
VHH: QVHLMESGGGSVQAGGSLRLSCVVSGISISPDCMGWFRQAPGKKREAVATIFTNTRRTRYGDSVKGRVTSSQGNAKNTLYLKMDNLRHDDTATYYCAARYTGGDCFNLDPLSWRFWGQGTQVTVSS
As to B1, in test [1], the binding entry is listed as “binds”.

B2: A31543 sdAb (VHH)
VHH: QVQLVESGGGKVQPGGSLRLSCAASGGTLDYYAIGWFRQAPGKEREAVSCISSSDGSTYYADSVKGRFTISRDNAKNTVYLQMNSLKPGDTAVYHCATDRACGSSWLGAESWAQGTQVTVSS
For B2, the binding entry in test [2], in test [3] and in test [1] was “binds” throughout.

B3: AS15899 sdAb (VHH)
VHH: QVQLVESGGGSVQAGGSLRLSCAASGYTAGSLCMGWFRQAPGKEREGVAAIYTGGGSTYYADSVKGRFTISQDNAKNTVYLQMNSLKPEDTAQYYCGAGSREDYCDRGYIYDHWGQGTQVTVSS
For the molecule B3, the binding entry in test [1] is “binds”.

B4: AS15090 sdAb (VHH)
VHH: QVQLVESGGGSVQAGGSLRLSCAASGYTYIPNCMAWFRQAPGKEREGVTLIFTGDGTSTYVDSVKGRFTISQDNAKNTVYLQMNSLKPEDTALYYCAAAERCSGSNDRISFWGISYWGQGTQVTVSS
With B4, the binding entry in test [1] is given as “binds”.

B5: AS15140 sdAb (VHH)
VHH: QVQLVESGGGSVQAGGSLRLSCTASAYTYSNICLGWLRQAPGGGLEAVATIYIADQTSYYADSVKGRFRISKDAAKNAVYLQMSSLRPEDTAMYYCASRYGSTCGEYLADYTSRAQGTQVTVSS
With B5, the binding result in test [1] is listed as “binds”.

B6: AS25115 sdAb (VHH)
VHH: QVHLVESGGASVQAGGSLRLSCAATAYTASNYCMGWFRQSPGKEREAVASINDDGVTSYADSVKGRFTISQDSAKKTLYLQMNRLKPEDTAMYYCAATPDGYCYAERLSRWRYEFWGQGTQVTVSS
In the case of B6, in test [1], the binding entry is “binds”.

B7: AS25435 sdAb (VHH)
VHH: QVQLVESGGGSVQAGGSLRLSCAATAYTASFYCMGWFRQAPGKEREAVASINDDGVTMYADSVKGQFTISQDSATKTLYLQMNRLKPEDTAMYYCAATPEGYCYAERLSTWRYTFWGQGTQVTVSS
As to B7, the binding result in test [1] is reported as “binds”.

B8: AS25037 sdAb (VHH)
VHH: EVQLAESGGGSVQAGGSLKLSCLASQWISSDCGMAWYRQAPGKERELVSRISSDDTTTYADSVKGRFTISQDSAKNTLYLQMNKLKTEDTGVYYCAAEAKSTITSLCYPLNYWGQGTQVTVSS
For the molecule B8, the binding result in test [1] is “binds”.

B9: AS17049 sdAb (VHH)
VHH: QVKLVESGGGSVQAGGYLRLSCAASGDTNNLNFRGWFRQAPGKEREGVAVITHSGSTYYAESVKGRFTISQDLAKNTMYLQMNSLKPEDTAMYYCAAADVWRISWSFVPELFSYWGQGTQVTVSS
With B9, the binding result in test [1] is “binds”.

B10: AS25071 sdAb (VHH)
VHH: EVQLAESGGGSVQSGGSLRLSCAVSGSGYSYSRGCFAWFQQRPGKEREGVAIINSDGHTAYSDSVQGRFIISQDKAKNTLYLQMNSLKPDDTAMYYCAYDRSQCYVLRDRLRLPDTFTDWGQGTQVTVSS
With B10, in test [1], the binding entry was “binds”.

B11: AS25156 sdAb (VHH)
VHH: EVQLVESGGGSVQSGGSLRLSCAVSGSGYSYSRGCFAWFQQRPGKEREGVAIINSDGHTRYSDSVQGRFIISQDKAKNTLYLQMNSLKPDDTAMYYCAYDCSQCYVLRDRLRLPDTFTDWGQGTQVTVSS
Turning to B11, the binding result in test [1] was “binds”.

B12: AS25149 sdAb (VHH)
VHH: QVQLVESGGGSVQSGGSLKLSCAVSGSGYSYSRGCFAWFQQRPGKEREGVAIINSDGHTRYSDSVQGRFIISQDKAKNTLYLQMNSLKPDDAAMYYCAYDRNQCYVLLDRLRLPGTFSDWGQGTQVTVSS
As for B12, the binding result in test [1] is given as “binds”.

B13: AS25170 sdAb (VHH)
VHH: QVKLVESGGGLVQSGGSLRLSCAVSGSGYSYSRGCFAWFQQRPGKEREGVAIINMDGHTMYSDLAQGRFIISQDKAKNTLYLQMNSLKPDDTAMYYCAYDRDQCYVLRDRLRLPDTFNDWGQGTQVTVSS
Turning to B13, the binding result in test [1] was “binds”.

B14: AS25164 sdAb (VHH)
VHH: EVQLVESGGGSVQSGGSLRLSCAVSGSGYSYNRGCFAWFQQRPGKEREGVAIINSDGHTTYGDSVQGRFIISQDKAKNTLDLQMNSLKPDDTAMYYCAYDRNQCYVLRDRLRLPDTFTDWGQGTQVTVSS
B14: in test [1], the binding entry is recorded as “binds”.

B15: AS15883 sdAb (VHH)
VHH: QVHLMESGGGSVQAGGSLTLSCAASVFTDSNYCMAWFRQVPGKEREGVAIIDRYGGTMYKDSVKGRFTISKDTAKNILYLQMNSLKLEDTAMYYCAAAGYRGSSCDADSGYWGQGTQVTVSS
Take B15: the binding entry in test [1] is recorded as “binds”.

B16: AS15881 sdAb (VHH)
VHH: QVQLVESGGGSVQAGGSLRLSCAASGFTDSSYCGAWFRQVPGKEREGVAIIDRYGGTMYKDSVKGRFTISKDTAKNILYLQMNSLKLEDTAMYYCAAAEYRGSSCDAESGYWGQGTQVTVSS
On to B16, for which the binding result in test [1] was “binds”.

B17: AS15892 sdAb (VHH)
VHH: QIQLVESGGGSVQAGGSLRLSCAASGFTDSSYCGAWFRQVPGKEREGVAIIDRYGGTMYKDSVKGRFTISKDTAKNILYLQMNSLKLEDTAMYYCAAAEYRGSSCDAESGYWGQGTQVTVSS
As for B17, the binding result in test [1] is “binds”.

B18: AS15156 sdAb (VHH)
VHH: QVQLVESGGGSAQAGGSLRLSCAVSGYIYNRNFMGWFRQVPGKVREGVAAIYTGTERTYYADSVKGRFTISQDNAKNTVYLQMNSLKPEDTAMYYCVADLRDGTWDTGVWNTWGQGTQVTVSS
As for B18, the binding result in test [1] is on record as “binds”.

B19: AS15193 sdAb (VHH)
VHH: QIQLVESGGGSAQAGGSLRLSCVVSGNIYNRNFMGWFRQAPGKVREGVAAIYTGTSRTYYADSVKGRFTISQDNAKNTVYLQMNSLKPEDTAMYYCAADLRDGFWDTGVWNTWGQGTQVTVSS
On to B19, for which, in test [1], the binding entry was “binds”.

B20: AS25117 sdAb (VHH)
VHH: EVQLAESGGGSVQAGGSLRLSCVISGTSISPDCMGWFRQAPGKKREAVMSIFTNTGSTRYGDSVKGRFTSSQGNAKNTLYLQMDSLKLDDTATYYCAARYTGGDCFNLEPLAWRFWGQGTQVTVSS
For B20, the binding result in test [1] is “binds”.

B21: AS25457 sdAb (VHH)
VHH: QVQLVESGGGSVQAGGSLRLSCAVSGISISPDCMGWFRQAPGKKREAVATIFTNTRSTRYGDSVKGRFTSSQGNAKNTLYLQMDSLKLDDTATYYCAARYTGGDCFNLEPVAWRFWGQGTQVTVSS
With B21, the binding result in test [1] is reported as “binds”.

B22: AS25095 sdAb (VHH)
VHH: QVQLVESGGGLMQPGGSLRLSCAASGFTFSSYWMYWVRQAPGKGLEWVSVINRAGDSAWYADSVTGRFTISRDNAKNTVYLQMDSLKPEDTAMYYCAADSRGYGGDWYKLLSDFNYCGQGTQVTVSS
Consider B22, for which the binding entry in test [1] is given as “binds”.

B23: AS15872 sdAb (VHH)
VHH: QVQLVESGGGLVQPGGSLTLSCAASGFTFSTAAMSWVRQVPEEGLEWVASIDSSGSRTYYAGSVKGRFTISRDNAKNTLYLQLNSLKAEDTAMYYCAKDHMSWLPRGQGTQVTVSS
For B23, the binding entry in test [1] is given as “binds”.

B24: AS17118 sdAb (VHH)
VHH: QVQLVESGGGSVQAGGSLRLSCAGSGFTFNNYAMGWFRQAPGKEREGIAGIWTGGGSTYYADSVKGRFTISEDVAKNTVYLQMDSLKPEDTAMYYCAAERWDYSDWRRLKRGDYNYWGQGTQVTVSS
Consider B24, for which the binding entry in test [1] was “binds”.

B25: AS25067 sdAb (VHH)
VHH: QVHLMESGGGAVQTGGSLRLSCAVSGISISPDCMGWFRQAPGKKREAVTTIFANTGSARYGDSVKGRFTSSQGNAKNTLYLQMDSVKLDDTGTYYCAARFTGGDCFDHQPLAWRFWGQGTQVTVSS
As for B25, the binding entry in test [1] is given as “binds”.

B26: AS24984 sdAb (VHH)
VHH: QVHLMESGGGSVPSGGSLRLSCAVSGSGYSYSRGCFAWFQQRPGKEREGVAIINMDGHTRYSDSVQGRFIISQDKAKNTLHLQMNTLRPDDTAMYYCAYDRSQCYVLSDRLRLPGTFSDWGQGTQVTVSS
As for B26, in test [1], the binding entry is listed as “binds”.

B27: AS15152 sdAb (VHH)
VHH: QMQLVESGGGSVQAGGSLRLSCAVSGYIYNRNFMGWFRQAPGKEREGVAAIYTGGPYTYYTDSVQGRFTISQDNTKNTVYLQMNSLKPEDTAMYYCVSDLSDGTWDQGRWNYWGQGTQVTVSS
B27: in test [1], the binding result was “binds”.

B28: AS25487 sdAb (VHH)
VHH: EVQLVESGGGLVQPGGSLRLSCAASGFTFSVWSMSWVRQAPGEGLEWVSTITGSGAQTYYASSVRGRFTTSRDNAKNTVYLQMNSLKSDDTAVYYCERGNGQTAMEALINPPERPGTQVTVSS
For B28, in test [1], the binding result is on record as “binds”.

B29: AS25064 sdAb (VHH)
VHH: QVQLVESGGGSVQAGGSLRLTCAATGYSWRPDCMGWYRQAAEKEREGVAVIDADGITSYADAAKGRFTISRDNNKITLYLQMLKPDDTGMYVCVVGWRVSSGGNCQFNDYWGQGTQVTVSS
On to B29, for which the binding entry in test [1] is “binds”.

B30: AS25119 sdAb (VHH)
VHH: QVQLVESGGGSVQAGGPLRLTCAATGYSWRPDCMGWYRQAAEKEREGVAVIDADGITSYADAAKGRFTISRDNNNITLYLQMLKPDDTGMYVCVIGWRVSSGGNCQFNDYWGQGTQVTVSS
B30: the binding result in test [1] was “binds”.

B31: AS25222 sdAb (VHH)
VHH: QIQLVESGGGSVQAGGSLRLSCAVTGISISPDCMGWFRQAPGKKREAVATIFTNTASTRYGDSVKGRFTSSQGNGKNTLYLQMDSLNVDDTATYYCAARYTGGNCFNLEPLAWHFWGQGTQVTVSS
Take B31: the binding result in test [1] is “binds”.
